In publication PMC4891106:
No constants are given. Whether binding was seen depends on the method and setting. For some assays here: Binding seen in cells or lysates may run through a third protein. Some binding calls cover weakened binding; strength is not graded here.

Amino acid sequences for entries named in this document (tags omitted). A change or cut given only in a name is not applied to a line headed by its entry. Residues count along the entry.
UniProt P04004, residues 20-478: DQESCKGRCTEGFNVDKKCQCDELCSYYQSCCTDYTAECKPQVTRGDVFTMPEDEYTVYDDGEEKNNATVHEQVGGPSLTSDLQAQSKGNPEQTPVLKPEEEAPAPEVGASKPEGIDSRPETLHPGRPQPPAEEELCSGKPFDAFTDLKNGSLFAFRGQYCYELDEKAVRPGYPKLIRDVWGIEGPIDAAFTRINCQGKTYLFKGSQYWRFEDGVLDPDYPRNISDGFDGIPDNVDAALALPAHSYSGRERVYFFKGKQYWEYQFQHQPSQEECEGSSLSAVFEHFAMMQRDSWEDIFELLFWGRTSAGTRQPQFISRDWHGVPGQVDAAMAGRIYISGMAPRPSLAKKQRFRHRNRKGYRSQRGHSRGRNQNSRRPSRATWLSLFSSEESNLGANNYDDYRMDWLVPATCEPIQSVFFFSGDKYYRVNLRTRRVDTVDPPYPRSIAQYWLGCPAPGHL
UniProt Q9NPY3: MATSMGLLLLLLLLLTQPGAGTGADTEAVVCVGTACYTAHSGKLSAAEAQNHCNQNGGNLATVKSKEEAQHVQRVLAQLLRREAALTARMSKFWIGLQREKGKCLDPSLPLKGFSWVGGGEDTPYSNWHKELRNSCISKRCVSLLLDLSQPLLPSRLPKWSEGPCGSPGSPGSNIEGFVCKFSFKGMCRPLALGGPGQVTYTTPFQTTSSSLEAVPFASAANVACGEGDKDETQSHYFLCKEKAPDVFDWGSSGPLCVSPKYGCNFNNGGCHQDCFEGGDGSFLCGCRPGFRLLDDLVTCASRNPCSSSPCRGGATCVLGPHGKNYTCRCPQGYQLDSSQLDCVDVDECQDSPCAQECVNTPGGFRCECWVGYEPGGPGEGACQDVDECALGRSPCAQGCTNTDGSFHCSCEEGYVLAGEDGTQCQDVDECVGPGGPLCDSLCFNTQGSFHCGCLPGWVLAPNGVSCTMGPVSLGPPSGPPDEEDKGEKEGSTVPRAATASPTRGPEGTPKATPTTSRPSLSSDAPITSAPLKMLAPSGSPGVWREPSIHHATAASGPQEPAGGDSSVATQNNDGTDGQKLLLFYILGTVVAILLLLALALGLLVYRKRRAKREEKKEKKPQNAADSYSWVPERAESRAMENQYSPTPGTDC

Tests used:
vitronectin = vitronectin (UniProt P04004); assay: ELISA; soluble CD93 extracellular domain recombinant proteins applied to plates coated with purified ECM proteins
[1] = target: T1, β-dystroglycan (human (endogenous in HUVEC)) (UniProt Q14118); assay: proximity ligation; Duolink II on fixed, exponentially growing HUVEC on laminin-coated surfaces; mouse anti-CD93 and rabbit anti-β-DG; background by leaving out one primary antibody
T1 sequence: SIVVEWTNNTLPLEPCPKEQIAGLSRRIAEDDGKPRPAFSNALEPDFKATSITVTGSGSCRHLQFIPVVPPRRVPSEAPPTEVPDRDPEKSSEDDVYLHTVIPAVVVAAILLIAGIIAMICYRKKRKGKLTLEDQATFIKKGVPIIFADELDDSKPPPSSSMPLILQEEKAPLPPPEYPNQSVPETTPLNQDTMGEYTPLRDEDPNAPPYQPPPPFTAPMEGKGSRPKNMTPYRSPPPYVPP

Substance | binding (vitronectin) | binding [1]
soluble CD93 extracellular domain recombinant proteins (from UniProt Q9NPY3 24-580) (domain or fragment) | no binding | 
CD93 (from UniProt Q9NPY3 22-652) (receptor) |  | binds
